Where a chain is given by its changes, count along the chain named. No constants are given. Whether binding was seen depends on the method and setting. Some entries that bind do so weakly or less than the wild type.
B1: VEGF-binder (SEQ ID NO: 1) (designed binder)
chain: DLDKKLLEAARAGQDDEVRILLKAGADVNAKDSTGWTPLHLAAPWGHPEIVEVLLKAGADVNAKDFQGWTPLHLAAAAGHLEIVEVLLKAGADVNAQDKSGKTPADLAADAGHEDIAEVLQKAA
B2: Switchdrug DARPin 18-A (designed binder)
chain: MRGSHHHHHHGSDLGKKLLQAARAGQLDEVRELLKAGADVNAKDQYGRTPLHLAAIKGHLEIVEVLLKAGADVNAKDSLGYTPLHLAAVEGPLEIVEVLLKAGADVNAKDAYGQTPLHIAAAWGHLEIVEVLLKAVADVNAQDKSGKTPADLAARAGHQDIAEVLQKAAGSPTPTPTTPTPTPTTPTPTPTGSDLGQKLLEAAWAGQDDEVRELLKAGADVNAKNSRGWTPLHTAAQTGHLEIFEVLLKAGADVNAKNDKRVTPLHLAAALGHLEIVEVLLKAGADVNARDSWGTTPADLAAKYGHQDIAEVLQKAAGSPTPTPTTPTPTPTTPTPTPTGSDLDKKLLEAARAGQDDEVRILLKAGADVNAKDSTGWTPLHLAAPWGHPEIVEVLLKAGADVNAKDFQGWTPLHLAAAAGHLEIVEVLLKAGADVNAKDVYGWTPLHIAAASGHLEIVEVLLKAGADVNAKDWLGWTPLHLAASHGHLEIVEVLLKAGADVNAQDKSGKTPADLAARAGHQDIAEVLQKAA
B3: Switchdrug DARPin 13-B (designed binder)
chain: MRGSHHHHHHGSDLDKKLLEAARAGQDDEVRILLKAGADVNAKDSTGWTPLHLAAPWGHPEIVEVLLKAGADVNAKDFYGWTPLHLAAAAGHLEIVEVLLKAGADVNAKDWLGWTPLHLAASHGHLEIVEVLLKAGADVNAQDKSGKTPADLAARAGHQDIAEVLQKAAGSPTPTPTTPTPTPTTPTPTPTGSDLGKKLLQAARAGQLDEVRELLKAGADVNAKDQYGRTPLHLAAIKGHLEIVEVLLKAGADVNAKDSLGYTPLHLAAVEGPLEIVEVLLKAGADVNAKDAYGQTPLHIAAAWGHLEIVEVLLKAVADVNAQDKSGKTPADLAARAGHQDIAEVLQKAAGSPTPTPTTPTPTPTTPTPTPTGSDLGQKLLEAAWAGQDDEVRELLKAGADVNAKNSRGWTPLHTAAQTGHLEIFEVLLKAGADVNAKNDKRVTPLHLAAALGHLEIVEVLLKAGADVNARDSWGTTPADLAAKYGHQDIAEVLQKAA
B4: Switchdrug DARPin 15-B (designed binder)
chain: B3 chain with Y79Q
B5: Switchdrug DARPin 13-A (designed binder)
chain: MRGSHHHHHHGSDLGKKLLQAARAGQLDEVRELLKAGADVNAKDQYGRTPLHLAAIKGHLEIVEVLLKAGADVNAKDSLGYTPLHLAAVEGPLEIVEVLLKAGADVNAKDAYGQTPLHIAAAWGHLEIVEVLLKAVADVNAQDKSGKTPADLAARAGHQDIAEVLQKAAGSPTPTPTTPTPTPTTPTPTPTGSDLGQKLLEAAWAGQDDEVRELLKAGADVNAKNSRGWTPLHTAAQTGHLEIFEVLLKAGADVNAKNDKRVTPLHLAAALGHLEIVEVLLKAGADVNARDSWGTTPADLAAKYGHQDIAEVLQKAAGSPTPTPTTPTPTPTTPTPTPTGSDLDKKLLEAARAGQDDEVRILLKAGADVNAKDSTGWTPLHLAAPWGHPEIVEVLLKAGADVNAKDFYGWTPLHLAAAAGHLEIVEVLLKAGADVNAKDWLGWTPLHLAASHGHLEIVEVLLKAGADVNAQDKSGKTPADLAARAGHQDIAEVLQKAA
B6: Switchdrug DARPin 15-A (designed binder)
chain: B5 chain with Y408Q
B7: Switchdrug DARPin 17-A (designed binder)
chain: B5 chain with D344G, E349Q, D356L, I361E, Y408Q
B8: Switchdrug DARPin 18-B (designed binder)
chain: MRGSHHHHHHGSDLDKKLLEAARAGQDDEVRILLKAGADVNAKDSTGWTPLHLAAPWGHPEIVEVLLKAGADVNAKDFQGWTPLHLAAAAGHLEIVEVLLKAGADVNAKDVYGWTPLHIAAASGHLEIVEVLLKAGADVNAKDWLGWTPLHLAASHGHLEIVEVLLKAGADVNAQDKSGKTPADLAARAGHQDIAEVLQKAAGSPTPTPTTPTPTPTTPTPTPTGSDLGKKLLQAARAGQLDEVRELLKAGADVNAKDQYGRTPLHLAAIKGHLEIVEVLLKAGADVNAKDSLGYTPLHLAAVEGPLEIVEVLLKAGADVNAKDAYGQTPLHIAAAWGHLEIVEVLLKAVADVNAQDKSGKTPADLAARAGHQDIAEVLQKAAGSPTPTPTTPTPTPTTPTPTPTGSDLGQKLLEAAWAGQDDEVRELLKAGADVNAKNSRGWTPLHTAAQTGHLEIFEVLLKAGADVNAKNDKRVTPLHLAAALGHLEIVEVLLKAGADVNARDSWGTTPADLAAKYGHQDIAEVLQKAA
B9: 2-in-1 DARPin 18 (SEQ ID NO: 11) (designed binder)
chain: DLDKKLLEAARAGQDDEVRILLKAGADVNAKDSTGWTPLHLAAPWGHPEIVEVLLKAGADVNAKDFQGWTPLHLAAAAGHLEIVEVLLKAGADVNAKDVYGWTPLHIAAASGHLEIVEVLLKAGADVNAKDWLGWTPLHLAASHGHLEIVEVLLKAGADVNAQDKSGKTPADLAARAGHQDIAEVLQKAA
B10: 2-in-1 DARPin 20 (SEQ ID NO: 13) (designed binder)
chain: B9 chain with I107L, S111A
B11: 2-in-1 DARPin 19 (SEQ ID NO: 12) (designed binder)
chain: B9 chain with Q67K, I107L, S111A
B12: 2-in-1 DARPin 13 (SEQ ID NO: 8) (designed binder)
chain: DLDKKLLEAARAGQDDEVRILLKAGADVNAKDSTGWTPLHLAAPWGHPEIVEVLLKAGADVNAKDFYGWTPLHLAAAAGHLEIVEVLLKAGADVNAKDWLGWTPLHLAASHGHLEIVEVLLKAGADVNAQDKSGKTPADLAARAGHQDIAEVLQKAA
B13: 2-in-1 DARPin 15 (SEQ ID NO: 9) (designed binder)
chain: B12 chain with Y67Q
B14: 2-in-1 DARPin 12 (SEQ ID NO: 7) (designed binder)
chain: B12 chain with F66V
B15: 2-in-1 DARPin 17 (SEQ ID NO: 10) (designed binder)
chain: B12 chain with D3G, E8Q, D15L, I20E, Y67Q
B16: 2-in-1 DARPin 11 (SEQ ID NO: 6) (designed binder)
chain: B12 chain with F66V, L74I, A78S

Protein sequences, listed by entry. Tags and fused reporters are not part of them. Lines headed by an entry give the natural chain unless they say otherwise; changes in a name come on top. Chains listed by the source or under a name are the forms on record and can include a tag or linker.
VEGF165 (P15692, form named): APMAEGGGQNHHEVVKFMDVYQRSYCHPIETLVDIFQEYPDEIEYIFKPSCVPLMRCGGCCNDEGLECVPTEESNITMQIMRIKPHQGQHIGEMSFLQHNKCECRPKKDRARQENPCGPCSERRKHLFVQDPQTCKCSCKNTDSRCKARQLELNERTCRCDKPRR

The binders below were run against VEGF165 (UniProt P15692) (assay: ELISA, biotinylated VEGF165 on neutravidin plate; reference binder).

binding | Binder
binds | B1

What follows are binders tested against VEGF165 (UniProt P15692) (assay: ELISA, biotinylated VEGF165 on neutravidin plate, anti-His detection; residual binding of the closed form).

binding | Binder
binds | B2
binds | B3
binds | B4
binds | B5
binds | B6
binds | B7
binds | B8

Each binder was assayed against VEGF165 (UniProt P15692) (assay: SPR (ProteOn)).

binding | Binder
binds | B9
binds | B10
binds | B11
binds | B12
binds | B13
binds | B14
binds | B15
binds | B16

Each binder was assayed against VEGF165 (UniProt P15692) (assay: ELISA: plate-bound biotinylated VEGF165, His-tagged construct titrated, no soluble VEGF, anti-His-HRP detection).

binding | Binder
binds | B2
binds | B3
binds | B4
binds | B5
binds | B6
binds | B7
binds | B8

The binders below were run against VEGF165 (UniProt P15692) (assay: ELISA: plate-bound biotinylated VEGF165, His-tagged binder titrated, anti-His-HRP detection).

binding | Binder
binds | B1

These binders were tested against VEGF165 (UniProt P15692) (assay: screen of 29 designs).

binding | Binder
binds | B9
binds | B10
binds | B11
binds | B12
binds | B13
binds | B14
binds | B15
binds | B16

— patent publication US20250042957A1
